Our source for the binding values is PMC7132798.

Sequences of proteins named here, by UniProt entry; tags and fusion partners are left off.
UniProt Q6PB44: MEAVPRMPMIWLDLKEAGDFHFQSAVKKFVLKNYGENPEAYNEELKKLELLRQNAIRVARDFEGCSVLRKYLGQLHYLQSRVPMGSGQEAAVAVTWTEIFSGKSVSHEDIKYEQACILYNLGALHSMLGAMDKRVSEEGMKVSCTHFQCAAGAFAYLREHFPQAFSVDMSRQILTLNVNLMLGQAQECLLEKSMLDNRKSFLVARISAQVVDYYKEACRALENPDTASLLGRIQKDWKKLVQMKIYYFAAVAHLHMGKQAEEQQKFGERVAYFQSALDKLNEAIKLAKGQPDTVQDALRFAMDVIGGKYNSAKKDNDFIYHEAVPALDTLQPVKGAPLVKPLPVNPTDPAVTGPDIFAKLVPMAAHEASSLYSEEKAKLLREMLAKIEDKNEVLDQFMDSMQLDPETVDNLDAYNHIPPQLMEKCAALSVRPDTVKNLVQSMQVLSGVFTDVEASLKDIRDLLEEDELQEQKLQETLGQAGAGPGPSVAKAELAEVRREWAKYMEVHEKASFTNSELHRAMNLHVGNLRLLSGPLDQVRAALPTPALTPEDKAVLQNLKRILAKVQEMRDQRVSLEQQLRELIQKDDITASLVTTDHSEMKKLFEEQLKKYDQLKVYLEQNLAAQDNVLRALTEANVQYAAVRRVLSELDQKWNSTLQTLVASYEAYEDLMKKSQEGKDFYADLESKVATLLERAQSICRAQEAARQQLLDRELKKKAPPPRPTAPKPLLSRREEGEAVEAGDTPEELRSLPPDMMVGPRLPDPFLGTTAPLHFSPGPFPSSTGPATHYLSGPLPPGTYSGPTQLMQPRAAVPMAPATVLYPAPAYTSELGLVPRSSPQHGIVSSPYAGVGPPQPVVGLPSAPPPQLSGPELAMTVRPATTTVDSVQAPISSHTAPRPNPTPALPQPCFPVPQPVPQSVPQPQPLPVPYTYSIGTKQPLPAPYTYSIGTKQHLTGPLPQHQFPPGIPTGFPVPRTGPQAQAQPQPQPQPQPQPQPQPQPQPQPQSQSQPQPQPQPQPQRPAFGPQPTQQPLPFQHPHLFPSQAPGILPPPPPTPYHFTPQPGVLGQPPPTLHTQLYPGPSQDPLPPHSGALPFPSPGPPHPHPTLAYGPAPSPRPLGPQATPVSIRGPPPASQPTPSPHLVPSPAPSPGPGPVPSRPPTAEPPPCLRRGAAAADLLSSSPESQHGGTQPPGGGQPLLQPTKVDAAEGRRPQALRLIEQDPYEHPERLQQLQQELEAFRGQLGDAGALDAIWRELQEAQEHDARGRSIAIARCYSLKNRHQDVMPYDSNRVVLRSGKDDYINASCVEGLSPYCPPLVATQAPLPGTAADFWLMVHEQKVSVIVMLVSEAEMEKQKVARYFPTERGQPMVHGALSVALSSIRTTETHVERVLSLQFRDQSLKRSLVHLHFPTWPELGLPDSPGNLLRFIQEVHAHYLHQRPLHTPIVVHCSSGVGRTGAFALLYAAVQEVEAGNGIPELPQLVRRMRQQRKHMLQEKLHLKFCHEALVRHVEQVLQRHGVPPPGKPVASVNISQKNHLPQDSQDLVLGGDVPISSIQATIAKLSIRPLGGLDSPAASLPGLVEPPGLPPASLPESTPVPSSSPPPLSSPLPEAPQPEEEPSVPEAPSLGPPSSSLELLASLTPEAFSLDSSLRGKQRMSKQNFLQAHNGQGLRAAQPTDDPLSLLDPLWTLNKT

This test concerns the target T1, Bicaudal-D1 (BICD1), endogenous (mouse (endogenous in N2A-FLAG-TrkB cells and ES-MNs)) (UniProt Q8BR07).
T1 sequence: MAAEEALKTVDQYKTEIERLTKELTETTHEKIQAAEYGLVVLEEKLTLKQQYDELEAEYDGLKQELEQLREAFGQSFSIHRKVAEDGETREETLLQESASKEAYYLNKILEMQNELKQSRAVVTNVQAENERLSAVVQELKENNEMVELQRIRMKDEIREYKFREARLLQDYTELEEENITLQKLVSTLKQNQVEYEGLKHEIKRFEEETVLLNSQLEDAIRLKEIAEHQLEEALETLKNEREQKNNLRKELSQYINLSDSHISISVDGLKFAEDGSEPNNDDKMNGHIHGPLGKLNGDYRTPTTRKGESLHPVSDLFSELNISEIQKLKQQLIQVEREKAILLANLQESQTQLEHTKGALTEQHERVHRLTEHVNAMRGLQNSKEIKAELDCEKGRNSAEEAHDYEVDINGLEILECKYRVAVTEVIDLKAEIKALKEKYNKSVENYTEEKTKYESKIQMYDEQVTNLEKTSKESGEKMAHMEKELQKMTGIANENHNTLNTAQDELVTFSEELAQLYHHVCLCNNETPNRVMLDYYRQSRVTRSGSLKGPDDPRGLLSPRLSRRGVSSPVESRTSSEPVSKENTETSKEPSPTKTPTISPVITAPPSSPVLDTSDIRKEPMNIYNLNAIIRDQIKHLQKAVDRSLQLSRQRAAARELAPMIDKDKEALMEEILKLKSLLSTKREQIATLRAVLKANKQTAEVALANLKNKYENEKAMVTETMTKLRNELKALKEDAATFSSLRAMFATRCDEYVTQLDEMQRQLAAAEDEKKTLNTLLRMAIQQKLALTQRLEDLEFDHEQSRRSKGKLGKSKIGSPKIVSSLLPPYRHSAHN
As to the kind of experiment: co-IP; anti-BICD1 polyclonal antibody or rabbit IgG on Protein-G magnetic beads; N2A-FLAG-TrkB lysate in 0.4% NP-40 lysis buffer, 2 h at 4°C; blots for PTPN23 and BICD1.

No constants are given. Whether binding was seen depends on the method and setting. In cells and extracts the contact can be indirect. Some results given as binding are weak or reduced against the parent protein; the word gives no strength. Tags and fused reporters may be left off the sequences shown.

Consider “protein tyrosine phosphatase, non-receptor type 23 (PTPN23), endogenous (from UniProt Q6PB44 1-1692)”, for which the binding entry is on record as “binds”.
